{"source": "paper PMC9254494", "about": "“Modulation of synaptic plasticity, motor unit physiology, and TDP-43 pathology by CHCHD10” (Acta Neuropathologica Communications, 2022)", "target": "T1, His-tagged CHCHD10^WT recombinant protein (human), Q8WYQ3", "T1 chain": "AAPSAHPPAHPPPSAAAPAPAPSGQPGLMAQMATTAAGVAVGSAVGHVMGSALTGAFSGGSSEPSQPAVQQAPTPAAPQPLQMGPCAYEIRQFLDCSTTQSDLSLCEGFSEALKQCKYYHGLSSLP", "assay": "filter trap assay; purified protein incubated by itself at 1 μM, 37 °C, 8 h, vigorous shaking (1200 rpm); filtered through 0.2 μm cellulose acetate membrane, retained aggregates probed with antibody; both purified", "conditions": "remark: other sources report otherwise", "note": "Results are given in words; binding and its absence hold for the method and conditions named. Sequences can lack the tags named with a protein.", "data": [{"binder": "His-tagged CHCHD10^WT recombinant protein, Q8WYQ3 17-142 (protein) AAPSAHPPAHPPPSAAAPAPAPSGQPGLMAQMATTAAGVAVGSAVGHVMGSALTGAFSGGSSEPSQPAVQQAPTPAAPQPLQMGPCAYEIRQFLDCSTTQSDLSLCEGFSEALKQCKYYHGLSSLP", "values": [{"measurement": "binding", "value": "no binding (tested: 1 μM)"}]}]}
